Results on 1 molecule are retold here after ChEMBL document CHEMBL1143881, “Sulfonamidolactam inhibitors of coagulation factor Xa” (Bioorg Med Chem Lett, 2008).

By Papp is commonly meant a coefficient for how fast a substance crosses the barrier.

The structures appear in SMILES notation.

The test system of one data set is Plasma. The data set is described as follows: Anticoagulant efficacy in human citreated plasma assessed as concentration required to double prothrombin time. The data set is classed as functional.
The nature of data set [1]: Apparent permeability across human Caco-2 cells. The class given is ADME, cell-based. (In general: Passage across Caco-2 layers is used to estimate intestinal permeability.)

On to `O=C1C(NS(=O)(=O)c2cc3ccc(Cl)nc3s2)CCCN1c1ccc(-n2ccccc2=O)cc1F` (configuration not stated), for which, in the data set with Plasma, the PT came out at 32 µM. The Papp in data set [1] turned out to be 83 nm/s.
